Results are given in words; binding and its absence hold for the method and conditions named. Binding seen in cells or lysates may run through a third protein. Some entries that bind do so weakly or less than the wild type. For part of these data: Tags and fused reporters may be left off the sequences shown. One block for each binder: values may come before it.
Key:
[1] = molecular target: FLAG-CK1α (full-length CK1α) (UniProt P48729); test: co-IP; 293T cells co-transfected with FLAG-CK1α and Myc-HPIP; IP with anti-FLAG monoclonal antibody, immunoblot with anti-myc
[2] = molecular target: FLAG-CK1α (full-length CK1α) (UniProt P48729); test: co-IP; series of mutant FLAG-CK1α fusion proteins used in IP experiments; the legend of Figure 2f says GST pull-down as in Figure 2e
CK1α (1–285) = molecular target: T1, CK1α (1–285) (UniProt P48729); test: as above
T1 sequence: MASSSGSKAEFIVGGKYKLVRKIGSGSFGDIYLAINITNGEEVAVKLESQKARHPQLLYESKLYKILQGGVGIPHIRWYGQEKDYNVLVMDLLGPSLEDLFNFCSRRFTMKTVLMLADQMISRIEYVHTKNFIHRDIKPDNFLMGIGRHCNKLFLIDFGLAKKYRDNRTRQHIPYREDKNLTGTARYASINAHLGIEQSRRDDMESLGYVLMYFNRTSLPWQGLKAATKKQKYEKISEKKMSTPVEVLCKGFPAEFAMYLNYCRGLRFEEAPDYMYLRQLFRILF

binding [1]: binds
B1: Myc-HPIP (protein, UniProt Q96AQ6 1-731)
chain: MASCPDSDNSWVLAGSESLPVETLGPASRMDPESERALQAPHSPSKTDGKELAGTMDGEGTLFQTESPQSGSILTEETEVKGTLEGDVCGVEPPGPGDTVVQGDLQETTVVTGLGPDTQDLEGQSPPQSLPSTPKAAWIREEGRCSSSDDDTDVDMEGLRRRRGREAGPPQPMVPLAVENQAGGEGAGGELGISLNMCLLGALVLLGLGVLLFSGGLSESETGPMEEVERQVLPDPEVLEAVGDRQDGLREQLQAPVPPDSVPSLQNMGLLLDKLAKENQDIRLLQAQLQAQKEELQSLMHQPKGLEEENAQLRGALQQGEAFQRALESELQQLRARLQGLEADCVRGPDGVCLSGGRGPQGDKAIREQGPREQEPELSFLKQKEQLEAEAQALRQELERQRRLLGSVQQDLERSLQDASRGDPAHAGLAELGHRLAQKLQGLENWGQDPGVSANASKAWHQKSHFQNSREWSGKEKWWDGQRDRKAEHWKHKKEESGRERKKNWGGQEDREPAGRWKEGRPRVEESGSKKEGKRQGPKEPPRKSGSFHSSGEKQKQPRWREGTKDSHDPLPSWAELLRPKYRAPQGCSGVDECARQEGLTFFGTELAPVRQQELASLLRTYLARLPWAGQLTKELPLSPAFFGEDGIFRHDRLRFRDFVDALEDSLEEVAVQQTGDDDEVDDFEDFIFSHFFGDKALKKRSGKKDKHSQSPRAAGPREGHSHSHHHHHRG

binding [2]: binds | binding (CK1α (1–285)): binds
B2: HPIP (in the CK1α mapping experiment of Figure 2f) (protein, UniProt Q96AQ6 1-731)
chain: B1 chain
